# Library screen at single concentrations

Each number is a percent effect as filed.
The controls that fix the scale are not given in the record; negative values are as filed.
The compounds are a random part of those screened.

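Assay of Toxoplasma gondii numbers, read through their beta-galactosidase reporter with a colour substrate. Concentration: 50 µM. The record gives no direction; the compounds picked for IC50 retests had high values, so higher reads as fewer parasites. Size under these conditions: about 18,000 compounds, about 170 of them at 50% or above in at least one test.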

For CCCNC(=O)c1cccnc1SCC the result was -13.42%.
For CCC(CC)(NC(=O)c1noc2c1CCCC2)C(N)=O the result was 4.331%.
For OC(c1cc(F)ccc1F)C1CCNCC1 (stereo unspecified) the result was -4.376%.
For CC(C)(C#N)NC(=O)OC(C)(C)C the result was -8.472%.
For CN(CCC#N)C(=O)COC(=O)c1ccccc1Br the result was 3.506%.
For Cc1ccc(NC(=O)NC2CCN(C)CC2)cc1 the result was -12.34%.
For O=C(CCN1CCC[C@H]1CO)Nc1ccccc1Cl the result was -10.36%.
For CN(C)c1nc(CS(=O)(=O)c2cccc(F)c2)ns1 the result was 17.18%.
For CCS(=O)(=O)CCNC(=O)c1cncnc1C the result was 0.7707%.
For COCCCOc1cnc(C#N)cn1 the result was 1.091%.
For O=C(NCc1nc2c(s1)CCCC2)C1CCOC1 (stereo unspecified) the result was -16.37%.
For O=C1CN(C(=O)c2ccc(Br)s2)c2ccccc2N1 the result was -2.024%.
For CCN(CCn1cccn1)C(=O)CNC(=O)N(C)C the result was 8.69%.
For CCC(C)CN1CCN(CCS(C)(=O)=O)CC1 (stereo unspecified) the result was -8.373%.
For CC1(CN)CCCN1Cc1ccccc1 (stereo unspecified) the result was 20.37%.
For CC(Cn1cncn1)NC(=O)Cc1c(F)cccc1Cl (stereo unspecified) the result was 11.56%.
For COCCN1CCCN(C(C)=O)CC1 the result was 7.728%.
For O=C(CN1CCC(O)CC1)Nc1ccc(Br)cn1 the result was -6.942%.
For CN(C)CCNC(=O)c1cc(Br)c[nH]1 the result was -8.866%.
For CCC(C(N)=O)N1CCC(c2nncn2C)CC1 (stereo unspecified) the result was 5.676%.
For COC(=O)CCn1cc(C(N)=O)cn1 the result was -2.543%.
For CC(C)C[C@H](N)C(=O)NCCN(C)C the result was 14.05%.
For OCC1COCCN(Cc2ccc(C(F)(F)F)nc2)C1 (stereo unspecified) the result was 17.84%.
For COc1cc(CCCN)cc(OC)c1O the result was -21.3%.
For CN(CCN1CCCC1=O)C(=O)C1CCCO1 (stereo unspecified) the result was 0.988%.
For O=C(c1cccs1)N1CCC(Nc2cccnc2)CC1 the result was -4.342%.
For COc1cc(C(=O)CCN(C)C)cc(OC)c1OC the result was -3.01%.
For CCCn1nnc(NC(=O)COc2ccc(Cl)cc2)n1 the result was -0.7206%.
For CCOc1ccc(S(=O)(=O)NCCCO)cc1 the result was -6.273%.
For COC[C@@H](O)CNC1CCOc2c(Br)cccc21 (stereo partly specified) the result was -10.42%.
For Cc1ccccc1C(=O)NCCN1CCN(C)CC1 the result was 10.61%.
For CCNCCNC(=O)Cc1ccc(F)cc1F the result was -11.26%.
For NCC(CO)Cc1ccccc1Br (stereo unspecified) the result was -9.847%.
For CC(C(=O)Nc1ccc(S(N)(=O)=O)cc1)N1CCCC1 (stereo unspecified) the result was -3.905%.
For COc1cccn(CC(=O)N2CCCCC2CN)c1=O (stereo unspecified) the result was 35.23%.
For CC(C)CCN1CCN(CC(=O)NC(N)=O)CC1 the result was -6.425%.
For CNCc1n[nH]c(=O)n1-c1ccc(Cl)cc1 the result was -4.854%.
For Cc1ccc(C)c(OCC(=O)NCC[S+](C)[O-])c1 (stereo unspecified) the result was -25.63%.
For CC(=O)Nc1cccnc1NC(=O)Cc1ccc(C)s1 the result was -23.07%.
For CS(=O)(=O)Cc1cccc(CN)c1 the result was 5.527%.
For CN1N=C(C(=O)N2CCCCCC2)CCC1=O the result was 2.804%.
For CC(C)[C@@H](CO)NCC(=O)NC1(C#N)CCCCC1 the result was -11.47%.
For CCC1COCCN1C(=O)CN1Cc2ccccc2C1 (stereo unspecified) the result was 37.62%.
For Cc1nccn1CC1CCN(C(C)C(=O)N(C)C)CC1 (stereo unspecified) the result was -3.01%.
For CCNc1nnc(SCc2ccnn2C)s1 the result was 5.14%.
For CCCC(=O)N(C)C1CCN(C)CC1 the result was 4.372%.
For CNC(=O)COC(=O)c1scc(C)c1I the result was -1.975%.
For CCCC(C)N1CCN(Cc2nc(COC)no2)CC1 (stereo unspecified) the result was -6.834%.
For CCN(CC)C(=O)C1CCCN1Cc1cccnc1 (stereo unspecified) the result was -3.657%.

5 of the entries, repeated:

{"compound": "CN(C)c1nc(CS(=O)(=O)c2cccc(F)c2)ns1", "Percent Effect": 17.18}
{"compound": "O=C1CN(C(=O)c2ccc(Br)s2)c2ccccc2N1", "Percent Effect": -2.024}
{"compound": "CCCC(C)N1CCN(Cc2nc(COC)no2)CC1", "stereo": "stereo unspecified", "Percent Effect": -6.834}
{"compound": "CC(Cn1cncn1)NC(=O)Cc1c(F)cccc1Cl", "stereo": "stereo unspecified", "Percent Effect": 11.56}
{"compound": "CNCc1n[nH]c(=O)n1-c1ccc(Cl)cc1", "Percent Effect": -4.854}

Source: ChEMBL document CHEMBL3988442, “University of Dundee, Small-Polar-MMV Screening Library” (2021).